In article PMC9830214:
No constants are given. Whether binding was seen depends on the method and setting. In cells and extracts the contact can be indirect. Some entries that bind do so weakly or less than the wild type. Tags and fused reporters may be left off the sequences shown.

Amino acid sequences for entries named in this document (tags omitted).
UniProt P53618: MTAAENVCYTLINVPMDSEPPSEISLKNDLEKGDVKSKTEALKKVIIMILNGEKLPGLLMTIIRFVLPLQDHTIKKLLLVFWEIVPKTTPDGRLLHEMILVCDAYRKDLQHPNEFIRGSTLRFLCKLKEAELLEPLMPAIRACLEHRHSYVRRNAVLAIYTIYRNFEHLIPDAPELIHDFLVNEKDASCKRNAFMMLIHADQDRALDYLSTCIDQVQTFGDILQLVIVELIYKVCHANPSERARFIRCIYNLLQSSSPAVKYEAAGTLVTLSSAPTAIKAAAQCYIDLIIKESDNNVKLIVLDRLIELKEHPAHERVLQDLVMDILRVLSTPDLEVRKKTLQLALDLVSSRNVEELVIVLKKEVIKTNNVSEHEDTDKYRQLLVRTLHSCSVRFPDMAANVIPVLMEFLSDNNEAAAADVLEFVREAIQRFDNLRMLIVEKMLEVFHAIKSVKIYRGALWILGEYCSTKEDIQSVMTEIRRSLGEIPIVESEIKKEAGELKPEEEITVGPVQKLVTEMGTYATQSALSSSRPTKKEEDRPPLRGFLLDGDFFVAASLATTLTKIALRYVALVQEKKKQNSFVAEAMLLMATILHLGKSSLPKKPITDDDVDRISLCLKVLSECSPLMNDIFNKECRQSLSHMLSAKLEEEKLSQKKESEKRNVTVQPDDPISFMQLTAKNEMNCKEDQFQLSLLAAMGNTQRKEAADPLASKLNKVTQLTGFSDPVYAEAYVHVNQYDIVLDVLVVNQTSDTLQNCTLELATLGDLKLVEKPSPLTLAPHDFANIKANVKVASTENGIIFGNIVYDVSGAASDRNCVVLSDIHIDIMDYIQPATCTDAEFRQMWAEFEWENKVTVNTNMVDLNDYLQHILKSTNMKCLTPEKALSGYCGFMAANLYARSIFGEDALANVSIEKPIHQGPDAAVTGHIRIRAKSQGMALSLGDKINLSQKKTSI

Molecular target: T1, HA-TMEM63B-QL (mouse) (UniProt Q3TWI9)
T1 sequence: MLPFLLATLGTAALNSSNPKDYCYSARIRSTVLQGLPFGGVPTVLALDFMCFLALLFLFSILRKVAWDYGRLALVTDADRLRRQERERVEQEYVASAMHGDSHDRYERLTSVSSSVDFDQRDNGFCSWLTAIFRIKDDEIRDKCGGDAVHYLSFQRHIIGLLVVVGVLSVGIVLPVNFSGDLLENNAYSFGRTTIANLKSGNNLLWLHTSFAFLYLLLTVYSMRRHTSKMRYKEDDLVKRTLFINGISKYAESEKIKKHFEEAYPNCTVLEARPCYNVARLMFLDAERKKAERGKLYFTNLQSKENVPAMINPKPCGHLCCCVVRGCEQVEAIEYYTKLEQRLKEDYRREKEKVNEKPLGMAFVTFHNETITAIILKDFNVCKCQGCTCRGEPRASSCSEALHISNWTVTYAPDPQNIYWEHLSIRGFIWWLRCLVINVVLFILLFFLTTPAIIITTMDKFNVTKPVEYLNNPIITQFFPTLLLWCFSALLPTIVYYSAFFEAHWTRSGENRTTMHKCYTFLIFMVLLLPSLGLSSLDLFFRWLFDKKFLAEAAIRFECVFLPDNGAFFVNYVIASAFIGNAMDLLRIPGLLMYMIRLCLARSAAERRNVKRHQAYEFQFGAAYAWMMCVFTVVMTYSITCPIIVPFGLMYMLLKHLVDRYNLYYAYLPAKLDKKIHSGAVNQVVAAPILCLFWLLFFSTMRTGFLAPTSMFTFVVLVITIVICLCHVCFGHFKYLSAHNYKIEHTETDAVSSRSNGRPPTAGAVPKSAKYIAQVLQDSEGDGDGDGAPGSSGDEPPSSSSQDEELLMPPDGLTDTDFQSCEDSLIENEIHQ
Assay: co-IP; HEK293T lysate (RIPA buffer) of cells transfected with HA-TMEM63B; anti-HA antibody at 4 °C overnight, Protein G agarose beads, eluted with 0.1 M glycine pH 2.5; blot for endogenous β-COP

- binding: binds
Substance: β-COP subunit of COPI complex (from UniProt P53618 1-953)
